Experimental data as given in PMC8467577, “Infection Responsive Smart Delivery of Antibiotics Using Recombinant Spider Silk Nanospheres” (Pharmaceutics, 2021).
≈ marks a conversion by molar mass, not a printed value.

Tested on: Staphylococcus aureus (ATCC 49230)
Assay: Minimum Inhibitory Concentration, microplate method
Assay type: cell-based
Conditions: ATCC49230, 24 h, read-out: Minimum Inhibitory Concentration (MIC)
Protocol: Antibacterial activity of the nanospheres was tested by calculating the Minimum Inhibitory Concentration (MIC) using the microplate method and Kirby Bauer Zone of Inhibition. Briefly, to determine the MIC, a culture of Staphylococcus aureus (ATCC 49230) was incubated overnight at 37 °C with shaking. The next day, the bacterial cell solution was diluted to 10^7 CFU/mL and different concentrations (ranging from 1 ug/mL to 32 ug/mL) of either the vancomycin-free drug or vancomycin-loaded nanospheres were added to the bacterial solution. Two hundred microliters of this bacterial/vancomycin suspension were seeded in a 96-well plate followed by incubation at 37 °C for 24 h. The optical density of each well was recorded on the microplate reader (Epoch, BioTek, Winooski, VT, USA). Selected concentrations of the particles surrounding the determined MIC were taken and ZOI was conducted by the disc diffusion method. Briefly, 6 mm discs were placed in 96-well plate and 200 µL of drug-loaded particles were added to the wells and the discs were soaked for 24 h. After 24 h, the discs were dried and plated on S. aureus streaked on LB agar plates, and the cleared diameter was measured using digital calipers.

CN[C@H](CC(C)C)C(=O)N[C@H]1C(=O)N[C@@H](CC(N)=O)C(=O)N[C@H]2C(=O)N[C@H]3C(=O)N[C@H](C(=O)N[C@H](C(=O)O)c4cc(O)cc(O)c4-c4cc3ccc4O)[C@H](O)c3ccc(c(Cl)c3)Oc3cc2cc(c3O[C@@H]2O[C@H](CO)[C@@H](O)[C@H](O)[C@H]2O[C@H]2C[C@](C)(N)[C@H](O)[C@H](C)O2)Oc2ccc(cc2Cl)[C@H]1O [vancomycin-free drug, vancomycin]
MIC: 2 µg/mL (≈ 1.38 µM)
